Article PMC4783296, “Structural basis underlying CAC RNA recognition by the RRM domain of dimeric RNA-binding protein RBPMS”
Results are given in words; binding and its absence hold for the method and conditions named. Some binding calls cover weakened binding; strength is not graded here.

The chains behind the UniProt entries cited, without tags or fusion partners. Where a name states a change or a piece, a line headed by the entry shows the natural chain unless it says otherwise. Residues count along the entry.
RBPMS RRM (amino acids 11-114) (Q93062, residues 11-114): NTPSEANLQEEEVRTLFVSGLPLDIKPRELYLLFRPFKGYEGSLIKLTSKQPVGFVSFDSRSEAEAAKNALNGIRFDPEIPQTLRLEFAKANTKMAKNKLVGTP

How the values were obtained:
[1] = molecular target: full-length RBPMS isoform A (ENSP00000318102) (human) (UniProt Q93062); assay: SEC; gel filtration on Superdex 75, elution volumes read on the column calibration curve; buffer not stated; both purified
[2] = molecular target: RBPMS RRM (amino acids 11-114) (human) (UniProt Q93062); assay: as above

binding [1]	binding [2]	Substance
binds		full-length RBPMS isoform A (ENSP00000318102) (from UniProt Q93062-1 1-196)
	binds	RBPMS RRM (amino acids 11-114) (from UniProt Q93062 11-114) (domain or fragment)
